Consider 6 substances from paper PMC6051671.

Amino acid sequences for entries named in this document (tags omitted).
UniProt P16749: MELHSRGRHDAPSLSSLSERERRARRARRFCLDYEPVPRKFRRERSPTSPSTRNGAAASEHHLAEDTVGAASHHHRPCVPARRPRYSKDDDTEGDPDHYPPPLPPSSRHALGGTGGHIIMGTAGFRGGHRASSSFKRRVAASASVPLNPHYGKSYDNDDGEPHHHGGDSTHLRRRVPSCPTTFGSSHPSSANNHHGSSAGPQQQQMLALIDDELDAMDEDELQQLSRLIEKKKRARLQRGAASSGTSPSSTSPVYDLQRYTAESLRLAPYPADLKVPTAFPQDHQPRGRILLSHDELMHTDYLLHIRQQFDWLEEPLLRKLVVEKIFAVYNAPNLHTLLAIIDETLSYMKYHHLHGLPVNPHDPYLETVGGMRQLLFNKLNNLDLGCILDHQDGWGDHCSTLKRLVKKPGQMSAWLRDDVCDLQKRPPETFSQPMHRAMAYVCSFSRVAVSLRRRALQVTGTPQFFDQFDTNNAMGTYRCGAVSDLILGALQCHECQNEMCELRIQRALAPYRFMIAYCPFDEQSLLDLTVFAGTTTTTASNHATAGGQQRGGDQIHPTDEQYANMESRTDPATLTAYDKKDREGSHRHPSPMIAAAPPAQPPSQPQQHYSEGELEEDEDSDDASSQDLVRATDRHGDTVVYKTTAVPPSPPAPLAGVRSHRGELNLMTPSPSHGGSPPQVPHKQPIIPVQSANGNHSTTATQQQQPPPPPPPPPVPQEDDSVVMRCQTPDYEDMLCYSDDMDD
UniProt P10238: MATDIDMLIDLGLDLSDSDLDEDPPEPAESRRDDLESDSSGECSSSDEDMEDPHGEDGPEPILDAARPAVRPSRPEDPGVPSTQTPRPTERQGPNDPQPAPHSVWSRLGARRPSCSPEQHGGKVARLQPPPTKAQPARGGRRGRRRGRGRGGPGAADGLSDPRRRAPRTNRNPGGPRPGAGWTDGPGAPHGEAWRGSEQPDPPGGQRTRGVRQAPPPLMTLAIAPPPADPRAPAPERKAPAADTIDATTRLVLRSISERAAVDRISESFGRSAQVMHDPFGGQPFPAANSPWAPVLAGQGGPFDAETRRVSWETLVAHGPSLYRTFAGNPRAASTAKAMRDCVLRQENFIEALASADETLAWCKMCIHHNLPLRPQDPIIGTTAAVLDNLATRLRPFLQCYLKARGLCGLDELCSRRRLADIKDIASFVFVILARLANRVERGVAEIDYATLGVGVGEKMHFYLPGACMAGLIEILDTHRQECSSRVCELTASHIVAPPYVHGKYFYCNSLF

Assay [1] concerns the target endogenous Ubc9 (E2 SUMO-conjugating enzyme) (human (endogenous in 293T)) (UniProt P63279). Kind of assay: co-IP.
Assay [2] concerns the target His6-SUMO1 (integrated copies in HeLa cells) (human) (UniProt P63165). In words: pull-down.
The target in assay [3] is His6-SUMO2 (integrated copies in HeLa cells) (human) (UniProt P61956). Kind of assay: pull-down.
The target in a further assay is GST-SUMO2 (pGEX2T-SUMO2) (UniProt P61956). Kind of assay: pull-down; both purified.
The next assay has as its target GST-SUMO1 (pGEX2T-SUMO1) (UniProt P63165). In words: pull-down; both purified.
A further assay concerns the target GST-Ubc9 (pGEX2T-Ubc9) (UniProt P63279). In words: pull-down; both purified.

No constants are given. Whether binding was seen depends on the method and setting. For some of these results: In cells and extracts the contact can be indirect. Some results given as binding are weak or reduced against the parent protein; the word gives no strength.

As to “CMV UL69 with C-terminal triple FLAG tag (pCMV3FC-UL69) (from UniProt P16749 1-744)”, the binding entry in assay [1], in assay [2] and in assay [3] was “binds” each time.
In the case of “EBV SM with C-terminal triple FLAG tag (pCMV3FC-SM) (from UniProt Q04360 1-479)”, the binding entry in assay [1], in assay [2] and in assay [3] was “binds” each time.
Turning to “HSV-1 UL54/ICP27 with C-terminal triple FLAG tag (pCMV3FC-UL54) (from UniProt P10238 1-512)”, the binding entry in assay [1], in assay [2] and in assay [3] was “binds” throughout.
“His6-SM-3FLAG (pET15b-SM-3FLAG) (from UniProt Q04360 1-479)”: the binding result with GST-SUMO2 (pGEX2T-SUMO2) is “binds”.
In the case of “His6-UL54-3FLAG (pET15b-UL54-3FLAG) (from UniProt P10238 1-512)”, the binding entry with GST-SUMO1 (pGEX2T-SUMO1), with GST-SUMO2 (pGEX2T-SUMO2) and in the assay with GST-Ubc9 (pGEX2T-Ubc9) was “binds” in each case.
Regarding “His6-UL69-3FLAG (pET15b-UL69-3FLAG) (from UniProt P16749 1-744)”, the binding result in the assay with GST-SUMO1 (pGEX2T-SUMO1), with GST-SUMO2 (pGEX2T-SUMO2) and in the assay with GST-Ubc9 (pGEX2T-Ubc9) was “binds” throughout.
